Source: paper PMC9456563
These are yes or no findings as the source states them, for the method shown. In cells and extracts the contact can be indirect. Some binding calls cover weakened binding; strength is not graded here.

Protein sequences, listed by entry. Tags and fused reporters are not part of them.
UniProt O95260: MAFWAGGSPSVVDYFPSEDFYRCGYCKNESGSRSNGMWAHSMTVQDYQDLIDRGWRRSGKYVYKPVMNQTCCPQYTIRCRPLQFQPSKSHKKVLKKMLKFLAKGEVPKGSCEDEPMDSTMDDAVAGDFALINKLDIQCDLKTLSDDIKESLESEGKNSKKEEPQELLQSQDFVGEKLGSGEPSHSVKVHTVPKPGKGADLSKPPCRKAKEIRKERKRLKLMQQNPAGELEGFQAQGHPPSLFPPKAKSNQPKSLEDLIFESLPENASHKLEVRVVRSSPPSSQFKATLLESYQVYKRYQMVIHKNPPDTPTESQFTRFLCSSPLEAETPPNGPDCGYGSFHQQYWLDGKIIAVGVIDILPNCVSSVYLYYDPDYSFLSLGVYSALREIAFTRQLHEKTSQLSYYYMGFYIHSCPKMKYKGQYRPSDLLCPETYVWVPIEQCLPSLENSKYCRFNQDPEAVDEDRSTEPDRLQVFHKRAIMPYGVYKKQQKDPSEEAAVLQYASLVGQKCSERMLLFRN

Biological target: T1, short RARS (arginyl-tRNA synthetase, short isoform), overexpressed in HEK293T (UniProt P54136)
T1 sequence: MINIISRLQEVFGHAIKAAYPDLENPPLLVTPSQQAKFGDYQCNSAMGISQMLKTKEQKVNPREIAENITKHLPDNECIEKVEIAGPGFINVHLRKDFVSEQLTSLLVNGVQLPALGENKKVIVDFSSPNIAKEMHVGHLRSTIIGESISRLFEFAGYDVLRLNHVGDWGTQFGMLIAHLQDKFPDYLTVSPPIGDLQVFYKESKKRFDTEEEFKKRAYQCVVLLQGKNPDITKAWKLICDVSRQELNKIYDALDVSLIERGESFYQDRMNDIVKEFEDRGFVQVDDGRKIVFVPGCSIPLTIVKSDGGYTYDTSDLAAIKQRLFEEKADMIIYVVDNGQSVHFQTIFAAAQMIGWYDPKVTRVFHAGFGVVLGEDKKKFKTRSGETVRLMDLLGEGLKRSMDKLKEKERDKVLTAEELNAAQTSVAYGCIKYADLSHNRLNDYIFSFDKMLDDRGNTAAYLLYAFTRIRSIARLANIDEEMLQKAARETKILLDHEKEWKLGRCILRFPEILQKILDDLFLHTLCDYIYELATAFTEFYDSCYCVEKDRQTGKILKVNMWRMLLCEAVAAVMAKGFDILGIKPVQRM
Assay: co-IP; anti-RARS antibody (orb247357 Biorbyt) and Protein A agarose from lysates of HEK293T cells transfected with the long or the short RARS; lysis buffer 50 mM Tris-HCl pH 7.5, 150 mM NaCl, 0.1% Triton X-100; room temperature; blot with ATE1 antibodies

In the case of “arginyltransferase ATE1 (from UniProt O95260 1-518) (enzyme)”, the binding is reported as “binds weakly”.
